Test results taken from publication doi:10.1101/2024.07.11.602925.
No constants are given. Whether binding was seen depends on the method and setting. Binding seen in cells or lysates may run through a third protein. Here binding means that the protein was enriched with, or labelled near, the bait; the list need not be complete.

Amino acid sequences for entries named in this document (tags omitted).
UniProt Q7Z4V5: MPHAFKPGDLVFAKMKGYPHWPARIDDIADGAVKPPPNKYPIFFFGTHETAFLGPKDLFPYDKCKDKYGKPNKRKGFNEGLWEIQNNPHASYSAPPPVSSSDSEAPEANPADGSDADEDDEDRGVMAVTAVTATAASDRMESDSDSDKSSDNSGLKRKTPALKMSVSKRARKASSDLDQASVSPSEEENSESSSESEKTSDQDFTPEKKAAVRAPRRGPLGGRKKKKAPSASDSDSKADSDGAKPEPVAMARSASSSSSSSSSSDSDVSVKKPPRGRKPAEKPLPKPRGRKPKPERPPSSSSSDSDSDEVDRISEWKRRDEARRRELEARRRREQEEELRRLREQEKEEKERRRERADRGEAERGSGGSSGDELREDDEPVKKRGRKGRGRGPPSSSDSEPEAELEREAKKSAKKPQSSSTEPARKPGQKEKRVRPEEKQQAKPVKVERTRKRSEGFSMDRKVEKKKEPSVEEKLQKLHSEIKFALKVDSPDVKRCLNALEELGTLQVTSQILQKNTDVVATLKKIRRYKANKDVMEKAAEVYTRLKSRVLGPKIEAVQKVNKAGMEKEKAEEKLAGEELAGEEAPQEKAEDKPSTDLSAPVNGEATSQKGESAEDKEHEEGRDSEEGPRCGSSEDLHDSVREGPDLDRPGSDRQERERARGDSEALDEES
UniProt Q9Y2A7: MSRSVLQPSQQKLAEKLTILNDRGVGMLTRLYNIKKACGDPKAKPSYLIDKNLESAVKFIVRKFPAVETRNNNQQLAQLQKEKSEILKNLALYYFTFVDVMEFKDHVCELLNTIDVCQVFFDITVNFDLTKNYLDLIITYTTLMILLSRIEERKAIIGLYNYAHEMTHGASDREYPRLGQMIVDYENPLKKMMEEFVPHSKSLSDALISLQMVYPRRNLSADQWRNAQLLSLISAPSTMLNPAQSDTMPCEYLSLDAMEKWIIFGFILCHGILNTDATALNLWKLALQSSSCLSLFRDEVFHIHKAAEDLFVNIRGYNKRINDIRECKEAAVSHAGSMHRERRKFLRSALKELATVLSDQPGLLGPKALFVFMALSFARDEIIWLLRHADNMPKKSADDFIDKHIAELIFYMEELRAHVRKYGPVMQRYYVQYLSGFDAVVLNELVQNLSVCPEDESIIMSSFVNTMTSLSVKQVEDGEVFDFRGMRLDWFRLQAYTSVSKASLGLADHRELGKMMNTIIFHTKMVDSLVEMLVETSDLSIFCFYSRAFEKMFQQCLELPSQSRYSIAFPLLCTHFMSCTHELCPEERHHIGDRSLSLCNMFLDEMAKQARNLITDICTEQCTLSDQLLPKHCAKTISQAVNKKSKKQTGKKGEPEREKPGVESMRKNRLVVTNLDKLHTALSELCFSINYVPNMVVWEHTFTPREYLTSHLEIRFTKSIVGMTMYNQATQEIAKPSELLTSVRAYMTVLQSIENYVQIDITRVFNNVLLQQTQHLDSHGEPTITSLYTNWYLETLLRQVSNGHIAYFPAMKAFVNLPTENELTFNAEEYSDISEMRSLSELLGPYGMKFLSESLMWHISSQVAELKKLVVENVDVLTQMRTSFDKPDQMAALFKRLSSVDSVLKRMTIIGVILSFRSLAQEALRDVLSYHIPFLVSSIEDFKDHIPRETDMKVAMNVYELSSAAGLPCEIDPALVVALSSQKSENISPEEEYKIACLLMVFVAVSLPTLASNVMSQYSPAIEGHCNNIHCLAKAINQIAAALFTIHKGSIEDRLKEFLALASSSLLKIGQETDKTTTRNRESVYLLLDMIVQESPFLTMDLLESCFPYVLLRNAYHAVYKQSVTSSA
UniProt Q9NR12: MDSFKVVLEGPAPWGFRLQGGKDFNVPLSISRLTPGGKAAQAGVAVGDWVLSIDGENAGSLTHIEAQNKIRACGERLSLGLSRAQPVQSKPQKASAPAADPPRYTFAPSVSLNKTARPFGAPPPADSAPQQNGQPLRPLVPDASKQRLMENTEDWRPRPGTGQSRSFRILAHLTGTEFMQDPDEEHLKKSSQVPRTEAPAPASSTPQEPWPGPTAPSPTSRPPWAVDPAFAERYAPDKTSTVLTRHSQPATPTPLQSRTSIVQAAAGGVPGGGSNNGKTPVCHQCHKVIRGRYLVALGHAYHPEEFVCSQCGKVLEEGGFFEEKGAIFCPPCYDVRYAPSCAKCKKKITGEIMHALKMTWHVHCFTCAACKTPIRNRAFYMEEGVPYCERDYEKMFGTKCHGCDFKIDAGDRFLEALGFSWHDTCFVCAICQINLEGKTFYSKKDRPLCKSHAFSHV
UniProt Q9Y3P9: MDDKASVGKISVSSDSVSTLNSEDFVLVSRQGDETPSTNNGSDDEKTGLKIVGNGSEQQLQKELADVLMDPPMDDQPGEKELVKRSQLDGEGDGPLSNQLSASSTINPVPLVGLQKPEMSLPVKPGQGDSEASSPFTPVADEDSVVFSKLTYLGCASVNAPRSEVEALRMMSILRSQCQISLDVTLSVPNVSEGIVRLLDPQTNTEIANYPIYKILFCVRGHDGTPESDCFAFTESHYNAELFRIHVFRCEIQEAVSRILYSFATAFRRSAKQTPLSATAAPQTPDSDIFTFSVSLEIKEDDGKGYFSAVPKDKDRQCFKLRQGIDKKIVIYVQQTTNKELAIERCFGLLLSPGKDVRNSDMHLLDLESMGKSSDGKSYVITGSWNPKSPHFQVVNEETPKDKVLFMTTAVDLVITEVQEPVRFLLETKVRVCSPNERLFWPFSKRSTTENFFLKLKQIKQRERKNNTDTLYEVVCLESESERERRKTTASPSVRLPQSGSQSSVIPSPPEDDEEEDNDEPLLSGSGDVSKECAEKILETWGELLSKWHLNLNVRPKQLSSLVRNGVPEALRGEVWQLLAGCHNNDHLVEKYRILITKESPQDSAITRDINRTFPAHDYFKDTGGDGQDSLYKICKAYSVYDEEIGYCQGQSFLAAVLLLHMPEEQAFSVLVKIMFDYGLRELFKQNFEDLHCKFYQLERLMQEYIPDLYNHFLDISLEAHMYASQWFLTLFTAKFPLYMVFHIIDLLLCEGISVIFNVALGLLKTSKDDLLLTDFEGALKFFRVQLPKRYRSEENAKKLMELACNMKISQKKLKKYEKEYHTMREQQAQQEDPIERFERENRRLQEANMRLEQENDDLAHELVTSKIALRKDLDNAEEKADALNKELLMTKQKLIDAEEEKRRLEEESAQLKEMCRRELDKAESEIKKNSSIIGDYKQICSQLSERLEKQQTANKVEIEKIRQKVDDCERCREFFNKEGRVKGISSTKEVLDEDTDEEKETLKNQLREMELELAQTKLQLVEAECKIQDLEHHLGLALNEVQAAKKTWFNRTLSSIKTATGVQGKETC
UniProt Q4G0F5: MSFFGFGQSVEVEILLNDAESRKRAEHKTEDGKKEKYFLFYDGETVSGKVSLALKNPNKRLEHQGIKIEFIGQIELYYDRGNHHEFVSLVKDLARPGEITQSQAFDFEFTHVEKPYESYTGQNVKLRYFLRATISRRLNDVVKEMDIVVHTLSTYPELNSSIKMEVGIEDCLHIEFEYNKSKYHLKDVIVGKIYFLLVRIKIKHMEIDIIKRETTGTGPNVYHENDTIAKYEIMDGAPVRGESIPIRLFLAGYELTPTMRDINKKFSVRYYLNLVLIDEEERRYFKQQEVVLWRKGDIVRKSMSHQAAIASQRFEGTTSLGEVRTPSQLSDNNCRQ

B1: NUMB (protein, UniProt P49757 1-651)
chain: MNKLRQSFRRKKDVYVPEASRPHQWQTDEEGVRTGKCSFPVKYLGHVEVDESRGMHICEDAVKRLKAERKFFKGFFGKTGKKAVKAVLWVSADGLRVVDEKTKDLIVDQTIEKVSFCAPDRNFDRAFSYICRDGTTRRWICHCFMAVKDTGERLSHAVGCAFAACLERKQKREKECGVTATFDASRTTFTREGSFRVTTATEQAEREEIMKQMQDAKKAETDKIVVGSSVAPGNTAPSPSSPTSPTSDATTSLEMNNPHAIPRRHAPIEQLARQGSFRGFPALSQKMSPFKRQLSLRINELPSTMQRKTDFPIKNAVPEVEGEAESISSLCSQITNAFSTPEDPFSSAPMTKPVTVVAPQSPTFQANGTDSAFHVLAKPAHTALAPVAMPVRETNPWAHAPDAANKEIAATCSGTEWGQSSGAASPGLFQAGHRRTPSEADRWLEEVSKSVRAQQPQASAAPLQPVLQPPPPTAISQPASPFQGNAFLTSQPVPVGVVPALQPAFVPAQSYPVANGMPYPAPNVPVVGITPSQMVANVFGTAGHPQAAHPHQSPSLVRQQTFPHYEASSATTSPFFKPPAQHLNGSAAFNGVDDGRLASADRHTEVPTGTCPVDPFEAQWAALENKSKQRTNPSPTNPFSSDLQKTFEIEL
B2: cold-inducible RNA-binding protein (CIRBP) (protein, UniProt Q14011 1-172)
chain: MASDEGKLFVGGLSFDTNEQSLEQVFSKYGQISEVVVVKDRETQRSRGFGFVTFENIDDAKDAMMAMNGKSVDGRQIRVDQAGKSSDNRSRGYRGGSAGGRGFFRGGRGRGRGFSRGGGDRGYGGNRFESRSGGYGGSRDYYSSRSQSGGYSDRSSGGSYRDSYDSYATHNE

These molecules were tested against GST fused to the WT cytosolic tail of APP (649-695) (UniProt P05067) (assay: affinity purification with mass spectrometry).

binding, binds:
B1
B2

Target: GST fused to the WT cytosolic tail of APP (649-695) (UniProt P05067)
Test: affinity purification with mass spectrometry
Remark: another data set of the same source

binding, binds:
HDGFL2 (from UniProt Q7Z4V5 1-671)
NCKAP1 (from UniProt Q9Y2A7 1-1128)
PDLIM7 (from UniProt Q9NR12 1-457)
RABGAP1 (from UniProt Q9Y3P9 1-1069)
VPS26A (from UniProt O75436 1-327)
VPS26B (from UniProt Q4G0F5 1-336)
